PubChem BioAssay AID1259425 | University of Nebraska Medical Center | 2018

Purpose: 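Find knockdowns that reproduce the gene expression pattern seen when KSR1 is lost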 (primary screen)
Cell system: HCT116 human colon cancer cells
Knock-down reagent: siRNA pool against human genes, 50 nM siRNA
Read-out: 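mRNA of six signature genes measured together by branched-DNA assay after 50 nM siRNA pool, blank removed, divided by geometric mean of two housekeeping genes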
Scale: BNIP3L mRNA: higher = more BNIP3L transcript after knockdown
The deposit covers about 14,000 reagents; below is a part drawn at random. Reagents against one gene are numbered here. Some reagents were tested in more than one well and are listed for each. Not all columns of the deposit are shown. Not given: the time to read-out.

The first 2 records as a preview:
gene knocked down | pool no. | BNIP3L mRNA, set 1
RXFP1 | 1 | 0.096
COMMD4 | 1 | 0.0927

The list itself, from the first entry:
gene knocked down | pool no. | BNIP3L mRNA, set 1
RXFP1 | 1 | 0.096
COMMD4 | 1 | 0.0927
ZBTB14 | 1 | 0.108
NAA38 | 1 | 0.138
DESI2 | 1 | 0.131
PALM2AKAP2 | 1 | 0.0895
CYP3A5 | 1 | 0.0354
MXD3 | 1 | 0.165
OGA | 1 | 0.085
TAOK2 | 1 | 0.061
TAOK2 | 1 | 0.0512
PPP1R3C | 1 | 0.108
NDUFA10 | 1 | 0.0982
RPL22 | 1 | 0.124
RETN | 1 | 0.11
KRT16 | 1 | 0.0625
USP47 | 1 | 0.0378
AFF2 | 1 | 0.0987
GOLGA8A | 1 | 0.478
TMEM185A | 1 | 0.0876
LAMTOR2 | 1 | 0.0747
COPS7A | 1 | 0.0937
FAM193A | 1 | 0.101
TSPAN13 | 1 | 0.11
C1QC | 1 | 0.103
COL16A1 | 1 | 0.073
BSPRY | 1 | 0.0699
GOLGA3 | 1 | 0.0736
TRMT6 | 1 | 0.163
STX7 | 1 | 0.0922
CPLX2 | 1 | 0.0571
CPLX2 | 2 | 0.0404
HDGFL3 | 1 | 0.159
RBBP4 | 1 | 0.0645
MYO1G | 1 | 0.1
TESK1 | 1 | 0.0957
PTPN13 | 1 | 0.0913
RHBDF2 | 1 | 0.166
S1PR4 | 1 | 0.147
CDKN1A | 1 | 0.131
MYT1 | 1 | 0.121
MCTS1 | 1 | 0.0724
EVI2B | 1 | 0.108
ETV4 | 1 | 0.296
STK35 | 1 | 0.194
GOLT1B | 1 | 0.0783
PTPN14 | 1 | 0.0489
DLX5 | 1 | 0.0731
PLXNA3 | 1 | 0.102
NXT2 | 1 | 0.107
NR1H2 | 1 | 0.0962
HIF1AN | 1 | 0.215
TTF1 | 1 | 0.093
INTS11 | 1 | 0.0824
KCNN1 | 1 | 0.0744
THBS3 | 1 | 0.162
BLVRA | 1 | 0.0662
PRB1 | 1 | 0.075
MYH13 | 1 | 0.0661
MAP4K5 | 1 | 0.0639
SH2B1 | 1 | 0.235
EPHA2 | 1 | 0.069
ZSCAN32 | 1 | 0.169
